Test results reported in patent US6277854A, “Tricyclic antitumor farnesyl protein transferase inhibitors” (Schering Corporation, priority 1999, dated 2001).
For at least one compound, name, drawing or mass did not settle the structure.

Test system: farnesyl protein transferase
Assay: In vitro enzyme assay: inhibition of farnesyl protein transferase (FPT), [3H]farnesyl transfer to Ras-CVLS
Assay type: biochemical, rat (brain); human (expressed in E. coli)
Conditions: @ 110 nM
Source text: 1. In vitro enzyme assays: Inhibition of famesyl protein transferase and geranylgeranyl protein transferase.
Farnesyl protein transferase (FPT) was partially purified from rat brain by ammonium sulfate fractionation followed by Q-Sepharose (Pharmacia, Inc.) anion exchange chromatography essentially as described by Yokoyama et al (Yokoyama, K., et al., (1991), A protein geranylgeranyltransferase from bovine brain: Implications for protein prenylation specificity, Proc. Natl. Acad. Sci USA 88: 5302-5306, the disclosure of which is incorporated herein by reference thereto). Human famesyl protein transferase was also expressed in E. coli, using cDNA clones encoding both the a and b subunits. […]
Several methods for measuring farnesyl protein transferase activity have been described (Reiss et al 1990, Cell 62: 81; Schaber et al 1990, J. Biol. Chem. 265: 14701; Manne et al 1990, PNAS 87: 7541; and Barbacid & Manne 1993, U.S. Pat. No. 5,185,248). […] Filter mats were washed once with 6% TCA, 2% SDS and radioactivity was measured in a Wallac 1204 Betaplate BS liquid scintillation counter. Percent inhibition was calculated relative to the DMSO vehicle control.

Row | Compound | FPT inhibition [%]
1 | CS(=O)(=O)NCC(=O)N1CCC(C2c3ncc(Br)cc3CCc3cc(Cl)cc(Cl)c32)CC1 (single isomer, unassigned; (+)) [Example 28] | 43
2 | NC(=O)NCC(=O)N1CCC(C2c3ncc(Br)cc3CCc3cc(Cl)cc(Cl)c32)CC1 (single isomer, unassigned; (+)) [Example 30] | 36
